Experimental data published in PubChem BioAssay AID1347075 (National Center for Advancing Translational Sciences (NCATS), 2019).
Out of some 400,000 compounds screened, about 5,500 (1.4%) were called active. The inconclusive results got no clear call from the source; some entries with a clear call stand among them for comparison. Calls follow the shape of the dose curve; as a rule, active = well fitted cell-killing curve with a large enough effect; inconclusive = small, poorly fitted or top-dose-only effect, or effect the other way; inactive = flat fitted curve, though single readings scatter. Potencies of inconclusive entries are doubtful fits and often do not repeat.

Experiment: qHTS assay for MDR1-selective chemotherapeutics: Primary screen using the parental adenocarcinoma cell KB-3-1; also: nearly all actives have a fitted effect of over 60% in size
Settings: KB-3-1 viability, CellTiter-Glo ATP luminescence, 72 h; series mostly up to 46.1 µM
Outline: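 Using CellTiter-Glo luminescence, growth of non-resistant KB-3-1 adenocarcinoma cells is assessed 72 h after pin-tool compound addition at 37 °C. Normalized responses across the concentration series yield fitted curves.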
Potency is read from the fitted curve at half-maximal effect.

Q: For `COc1ccc(-c2nnc(SCC(=O)Nc3nc4ccccc4s3)n2C)cc1`, which Potency is on record?
A: inactive

Q: Which Potency does the source give for `CC(=O)Nc1cccc(-c2cnc(N)c(C(=O)c3cccnc3)n2)c1` here?
A: inconclusive: 18.4 µM [cytotoxic, single point]

Q: With `COc1cc(C=CC(=O)c2cc(OC)c(OC)c(OC)c2)cc(OC)c1OC` as the compound, how does the Potency read?
A: active: 6.51 µM

Q: Which Potency does the source give for `COc1cnc(SCCC(F)=C(F)F)[nH]c1=O` here?
A: inactive

Q: For `CCc1nc(CN2CCN(Cc3ccc(F)c(F)c3)C(CCO)C2)c(C)[nH]1` (stereo unspecified), which Potency is on record?
A: inconclusive: 7.31 µM [rising, partial curve]

Q: For `COc1cc(NS(=O)(=O)c2cc3[nH]c(=O)c(=O)[nH]c3cc2C)cc(OC)c1OC`, which Potency is on record?
A: inconclusive: 18.4 µM [cytotoxic, single point]

Q: Which Potency does the source give for `COc1ccc(/C=C/C(=O)c2cc(Br)ccc(=O)c2O)cc1` here?
A: inconclusive: 32.6 µM [cytotoxic, single point]

Q: With `Nc1nonc1C(=O)N/N=C/c1cc2c(cc1[N+](=O)[O-])OCO2` as the compound, how does the Potency read?
A: inactive

Q: For `Cc1cc(C)cc(C(=O)N2CCC(CCC(=O)NC3CC3)CC2)c1`, which Potency is on record?
A: inactive

Q: With `Cc1ccc2nc(NC(=O)CSc3nc(=O)n(CCCN(C)C)c4c3CCC4)sc2c1` as the compound, how does the Potency read?
A: inconclusive: 29.1 µM [cytotoxic, single point]

Q: With `COc1ccc(CCNC(=O)/C=C/c2ccc3ccccc3n2)cc1OC` as the compound, how does the Potency read?
A: inconclusive: 20.6 µM [cytotoxic, single point]

Q: With `Cc1ccc(NC(=O)CN(C)S(=O)(=O)c2ccc3c(c2)CCC(=O)N3)c(C)c1` as the compound, how does the Potency read?
A: inconclusive: 32.6 µM [cytotoxic, single point]

Q: With `Cc1cc(NC(=O)CSc2nc(-c3ccco3)cc(C(F)(F)F)n2)no1` as the compound, how does the Potency read?
A: active: 0.82 µM

Q: With `O=C(CC(c1ccco1)C1CCCCC1=O)c1ccco1` (stereo unspecified) as the compound, how does the Potency read?
A: inactive

Q: For `COc1ccc(OCCOc2ccc(S(=O)(=O)N3CCCC3)cc2[N+](=O)[O-])cc1`, which Potency is on record?
A: inconclusive: 14.6 µM [cytotoxic, single point]

Q: Which Potency does the source give for `COc1ccccc1C(=O)c1c(N)c(-c2nc(-c3ccccc3)cs2)c2ccccn12` here?
A: inconclusive: 29.1 µM [cytotoxic, single point]

Q: For `COc1ccc(S(=O)(=O)NCc2ccccn2)cc1NC(=O)c1ccccc1F`, which Potency is on record?
A: active: 1.46 µM

Q: For `CCCN1CCN(c2ncc3c(n2)CCN(Cc2ccc(OC)c(OC)c2OC)C3)CC1`, which Potency is on record?
A: inactive

Q: With `Cc1cc(/C=C2\SC(=S)NC2=O)cc(C)c1O` as the compound, how does the Potency read?
A: inconclusive: 23.1 µM [cytotoxic, single point]

Q: With `CCOc1ccccc1C(=O)Nc1ccc2nc(N3CCN(c4ncccn4)CC3)cc(C)c2c1` as the compound, how does the Potency read?
A: active: 14.6 µM

Q: For `C/C(CC(=O)NC1C2CC3CC(C2)CC1C3)=N\NC(=O)Cc1cccs1` (stereo unspecified), which Potency is on record?
A: inconclusive: 10.3 µM [rising, partial curve]
